We go through two molecules from doi:10.1101/2022.07.12.22277558.

Sequences of proteins named here, by UniProt entry; tags and fusion partners are left off. A change or cut given only in a name is not applied to a line headed by its entry. Residues count along the entry.
UniProt O43586: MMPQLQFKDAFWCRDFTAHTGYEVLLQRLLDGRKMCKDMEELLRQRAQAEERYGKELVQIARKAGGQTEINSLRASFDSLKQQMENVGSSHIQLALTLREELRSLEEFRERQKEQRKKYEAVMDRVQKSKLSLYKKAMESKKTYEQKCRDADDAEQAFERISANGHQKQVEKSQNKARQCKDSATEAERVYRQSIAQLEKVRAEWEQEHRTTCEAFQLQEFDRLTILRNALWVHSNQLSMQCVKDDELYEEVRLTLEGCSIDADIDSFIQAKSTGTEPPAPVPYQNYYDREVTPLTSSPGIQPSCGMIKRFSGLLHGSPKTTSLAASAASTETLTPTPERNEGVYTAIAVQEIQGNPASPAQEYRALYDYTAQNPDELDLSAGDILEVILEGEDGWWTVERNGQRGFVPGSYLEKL
PSTPIP1-ΔSH3-FLAG (amino acids 1-364): residues 1-364 of O43586
UniProt P42768: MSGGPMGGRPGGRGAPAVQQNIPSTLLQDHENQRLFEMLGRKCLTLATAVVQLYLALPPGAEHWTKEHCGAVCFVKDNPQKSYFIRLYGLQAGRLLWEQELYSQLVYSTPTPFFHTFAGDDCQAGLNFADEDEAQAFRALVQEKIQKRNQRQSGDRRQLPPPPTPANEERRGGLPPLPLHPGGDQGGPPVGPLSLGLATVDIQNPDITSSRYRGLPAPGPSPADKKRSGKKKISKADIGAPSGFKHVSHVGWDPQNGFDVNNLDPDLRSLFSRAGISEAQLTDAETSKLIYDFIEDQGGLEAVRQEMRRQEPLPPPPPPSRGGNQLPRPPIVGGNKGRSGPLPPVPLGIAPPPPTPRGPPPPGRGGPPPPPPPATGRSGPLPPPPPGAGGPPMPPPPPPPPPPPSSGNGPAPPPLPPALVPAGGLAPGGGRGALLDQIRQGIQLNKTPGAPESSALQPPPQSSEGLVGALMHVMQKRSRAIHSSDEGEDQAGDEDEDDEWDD

Read-outs that look alike come from different tables or passages of the source. These are yes or no findings as the source states them, for the method shown. In cells and extracts the contact can be indirect. Some entries that bind do so weakly or less than the wild type.

Assay in all cases: co-IP
Assay [1] has as its target PSTPIP1 T371I, FLAG-tagged (human) (UniProt O43586).
For assay [2], the target named is PSTPIP1 G403E, FLAG-tagged (human) (UniProt O43586).
Assay [3] addresses PSTPIP1 A382T, FLAG-tagged (human) (UniProt O43586).
Assay [4] addresses PSTPIP1 wildtype, FLAG-tagged (human) (UniProt O43586).
Assay [5] concerns the target PSTPIP1-ΔSH3-FLAG (amino acids 1-364) (human) (UniProt O43586).
The target in assay [6] is PSTPIP1 T371I, FLAG-tagged (human) (UniProt O43586). The source holds these as a separate data set.
Assay [7] addresses PSTPIP1 G403E, FLAG-tagged (human) (UniProt O43586). The source holds these as a separate data set.
The target of assay [8] is PSTPIP1 A382T, FLAG-tagged (human) (UniProt O43586). This is another data set of the same source.
Assay [9] addresses PSTPIP1 wildtype, FLAG-tagged (human) (UniProt O43586). This is another data set of the same source.
The target of assay [10] is PSTPIP1 R405C, FLAG-tagged (human) (UniProt O43586).
The target of assay [11] is PSTPIP1-ΔSH3-FLAG (amino acids 1-364) (human) (UniProt O43586). The source holds these as a separate data set.

Take WASp (from UniProt P42768 1-502): the binding entry in assay [1] was “binds”; in assay [2], “binds”; in [3], “binds”; in assay [4], “binds”; in assay [5], “no binding”.

B1: protein tyrosine phosphatase PTP-PEST (enzyme, UniProt Q05209 1-780)
chain: MEQVEILRKFIQRVQAMKSPDHNGEDNFARDFMRLRRLSTKYRTEKIYPTATGEKEENVKKNRYKDILPFDHSRVKLTLKTPSQDSDYINANFIKGVYGPKAYVATQGPLANTVIDFWRMIWEYNVVIIVMACREFEMGRKKCERYWPLYGEDPITFAPFKISCEDEQARTDYFIRTLLLEFQNESRRLYQFHYVNWPDHDVPSSFDSILDMISLMRKYQEHEDVPICIHCSAGCGRTGAICAIDYTWNLLKAGKIPEEFNVFNLIQEMRTQRHSAVQTKEQYELVHRAIAQLFEKQLQLYEIHGAQKIADGVNEINTENMVSSIEPEKQDSPPPKPPRTRSCLVEGDAKEEILQPPEPHPVPPILTPSPPSAFPTVTTVWQDNDRYHPKPVLHMVSSEQHSADLNRNYSKSTELPGKNESTIEQIDKKLERNLSFEIKKVPLQEGPKSFDGNTLLNRGHAIKIKSASPCIADKISKPQELSSDLNVGDTSQNSCVDCSVTQSNKVSVTPPEESQNSDTPPRPDRLPLDEKGHVTWSFHGPENAIPIPDLSEGNSSDINYQTRKTVSLTPSPTTQVETPDLVDHDNTSPLFRTPLSFTNPLHSDDSDSDERNSDGAVTQNKTNISTASATVSAATSTESISTRKVLPMSIARHNIAGTTHSGAEKDVDVSEDSPPPLPERTPESFVLASEHNTPVRSEWSELQSQERSEQKKSEGLITSENEKCDHPAGGIHYEMCIECPPTFSDKREQISENPTEATDIGFGNRCGKPKGPRDPPSEWT
On to B1, for which the binding entry in [6], in [7], in assay [8], in assay [9], in [10] and in [11] was “binds” throughout.
